The list does not hold the whole screen: it is rich in T/C values a quarter to a half above the control, in often repeated tests (any T/C) and in doses without a T/C. Other doses and runs of a compound stand elsewhere. T/C: endpoint of the treated group in % of that of the vehicle group. Some entries give survivors of the animals treated and no T/C: the source files T/C as zero there, which appears to mark a toxic dose or a test without result, not a measured value. Some survivor counts are full or nearly so, which does not show that the dose was tolerated: survival well below the control is almost never listed, so the zero probably covers shortened survival too. Counts of survivors are from the toxicity check (mostly the fifth day) where no day follows; animals may have died later. Schedule codes are those of the source, taken here to give the interval after Q, in days (D) or hours (H), and the number of doses after X. Some structures stand for samples that the source files as different forms (salt, stereo form or complex); doses refer to the form tested. Signs of the kind (2×) stand for listed records that agree. Some entries were tested several times; the values are given in rising order. For survival time, the PubChem record calls one and a half times the control and up active, and a quarter to a half above the control has no call in these data; cut-offs in other NCI protocols can differ. Some T/C values carry the count of animals alive at the toxicity check (mostly the fifth day); where none is given, no animal had died by that day.
System: P388 leukemia ip, CD2F1 mice, survival T/C
Assay: NCI In Vivo Anticancer Drug Screen. Data for tumor model P388 Leukemia (intraperitoneal) in CD2F1 (CDF1) mice
Settings: T/C endpoint: median survival time, higher T/C = longer survival
[1] = dose: 100.0 mg/kg/injection, schedule: Q01DX009 (ip), vehicle: saline
[2] = dose: 100.0 mg/kg/injection, schedule: Q04DX003 (ip), vehicle: saline
[3] = dose: 100.0 mg/kg/injection, schedule: Q04DX003 (ip), vehicle: saline with Tween-80
[4] = dose: 200.0 mg/kg/injection, schedule: Q01DX009 (ip), vehicle: saline with Tween-80
[5] = dose: 100.0 mg/kg/injection, schedule: Q01DX009 (ip), vehicle: Klucel (hydroxypropylcellulose) (HPC)
[6] = dose: 200.0 mg/kg/injection, schedule: Q01DX009 (ip), vehicle: Klucel (hydroxypropylcellulose) (HPC)
[7] = dose: 100.0 mg/kg/injection, schedule: Q01DX009 (ip), vehicle: saline with Tween-80
[8] = dose: 400.0 mg/kg/injection, schedule: Q01DX009 (ip), vehicle: saline with Tween-80
[9] = dose: 25.0 mg/kg/injection, schedule: Q01DX009 (ip), vehicle: saline with Tween-80
[10] = dose: 200.0 mg/kg/injection, schedule: Q04DX003 (ip), vehicle: saline with Tween-80
[11] = dose: 400.0 mg/kg/injection, schedule: Q04DX003 (ip), vehicle: saline with Tween-80
[12] = dose: 100.0 mg/kg/injection, schedule: Q04DX002 (ip), vehicle: saline with Tween-80
[13] = dose: 200.0 mg/kg/injection, schedule: Q01DX005 (ip), vehicle: Klucel (hydroxypropylcellulose) (HPC)
[14] = dose: 100.0 mg/kg/injection, schedule: Q01DX005 (ip), vehicle: Klucel (hydroxypropylcellulose) (HPC)

Cc1ccc2c3c1CCCN3CCC2
survivor count (dose: 200.0 mg/kg/injection, schedule: Q04DX003 (ip), vehicle: saline): 1 of 6

COCCOP(=O)(N1CC1)N1CC1
T/C (dose: 12.5 mg/kg/injection, schedule: Q04DX003 (ip), vehicle: saline): 131 % of control
T/C (dose: 25.0 mg/kg/injection, schedule: Q04DX003 (ip), vehicle: saline): 131 % of control
survivor count [1]: 6 of 6
T/C [2]: 127 % of control

Nc1nc(=S)c2ncn(C3OC(COC(=O)c4ccccc4)C(OC(=O)c4ccccc4)C3OC(=O)c3ccccc3)c2[nH]1 (configuration not stated)
T/C [3]: 137 % of control
T/C (dose: 150.0 mg/kg/injection, schedule: Q04DX003 (ip), vehicle: saline with Tween-80): 129 % of control
survivor count [4]: 5 of 6

NC(=O)NC(=O)CCl
survivor count (dose: 25.0 mg/kg/injection, schedule: Q01DX009 (ip), vehicle: Klucel (hydroxypropylcellulose) (HPC)): 6 of 6
T/C [5]: 99, 110 [5 of 6 alive], 120, 122 % of control
T/C [6]: 102, 115 [4 of 6 alive], 126 % of control
survivor count [6]: 3 of 6
survivor count (dose: 400.0 mg/kg/injection, schedule: Q01DX009 (ip), vehicle: Klucel (hydroxypropylcellulose) (HPC)): 0 of 6

O=C1CCC2(CC(Br)C(=O)c3ccccc32)C(=O)N1 (configuration not stated)
survivor count (dose: 240.0 mg/kg/injection, schedule: Q01DX005 (ip), vehicle: Klucel (hydroxypropylcellulose) (HPC)): 2 of 6

CN(C)c1ccc2ccc(N(C)C)nc2c1
survivor count [7]: 4 of 6
survivor count [4]: 1 of 6

O=[N+]([O-])c1cc([N+](=O)[O-])c2ccccc2c1NS(=O)(=O)c1ccc(Cl)c(Cl)c1Cl
T/C [7]: 134 % of control
T/C [4]: 129 % of control [5 of 6 alive]
survivor count [8]: 2 of 6

O=C(NS(=O)(=O)c1ccc(Cl)cc1)c1ccccc1
survivor count [9]: 5 of 6
T/C [7]: 127 % of control [5 of 6 alive]
survivor count [7]: 6 of 6

CSc1nc(Cl)c(Br)c(Sc2nc(N)nc3nc[nH]c23)n1
T/C (dose: 132.0 mg/kg/injection, schedule: Q04DX003 (ip), vehicle: saline with Tween-80): 145 % of control
survivor count [4]: 6 of 6
T/C [10]: 140 % of control
T/C (dose: 300.0 mg/kg/injection, schedule: Q04DX003 (ip), vehicle: saline with Tween-80): 135 % of control
survivor count [11]: 6 of 6

O=C(Nc1cccc2ccccc12)OCCN=Cc1ccccc1O.O=C(Nc1cccc2ccccc12)OCCN=Cc1ccccc1O.[Cu]
survivor count [12]: 5 of 5
survivor count (dose: 200.0 mg/kg/injection, schedule: Q04DX002 (ip), vehicle: saline with Tween-80): 5 of 5

O=c1n2ccccc2nc2nc3ccccc3n12
survivor count (dose: 240.0 mg/kg/injection, schedule: Q01DX005 (ip), vehicle: saline with Tween-80): 6 of 6

CC(=O)OCC1OC(n2cnc3c(=S)nc(N)[nH]c32)CC1OC(C)=O (configuration not stated)
T/C (dose: 8.8 mg/kg/injection, schedule: Q04DX003 (ip), vehicle: saline with Tween-80): 135 % of control
T/C (dose: 10.0 mg/kg/injection, schedule: Q04DX003 (ip), vehicle: saline with Tween-80): 126 and 144 % of control
T/C (dose: 13.2 mg/kg/injection, schedule: Q04DX003 (ip), vehicle: saline with Tween-80): 138 % of control
T/C (dose: 40.0 mg/kg/injection, schedule: Q04DX003 (ip), vehicle: saline with Tween-80): 126 % of control
T/C (dose: 45.0 mg/kg/injection, schedule: Q04DX003 (ip), vehicle: saline with Tween-80): 138 % of control

NC(c1ccccc1)c1cccs1 (configuration not stated)
survivor count [13]: 1 of 5

O=C(NC(=O)c1cccc2ccccc12)NC(=S)c1ccc(Br)cc1
survivor count (dose: 100.0 mg/kg/injection, schedule: Q01DX001 (ip), vehicle: saline): 5 of 6
survivor count (dose: 200.0 mg/kg/injection, schedule: Q01DX001 (ip), vehicle: saline): 6 of 6
survivor count (dose: 400.0 mg/kg/injection, schedule: Q01DX001 (ip), vehicle: saline): 5 of 6

COc1cc2c(cc1OC(C)=O)C(=O)C(Br)CCC2 (configuration not stated)
survivor count [8]: 6 of 6

N#CC(c1ccccc1)(N1CCOCC1)N1CCOCC1
survivor count (dose: 50.0 mg/kg/injection, schedule: Q04DX003 (ip), vehicle: saline): 0 of 6
survivor count [2]: 0 of 6
survivor count [10]: 0 of 6
survivor count [11]: 0 of 6

Cc1c[nH]c2nc(C)n(-c3ccccc3)c(=N)c12
survivor count [14]: 2 of 6
survivor count [13]: 0 of 6

N#CC1CC2(CCC1=O)c1ccccc1-c1ccccc12 (configuration not stated)
survivor count [12]: 2 of 6

O=C1Nc2ccc(Cl)cc2C1=O
T/C [5]: 126 % of control

CCNC(=S)N/N=C/c1nccc(-c2ccccc2)c1C
survivor count [1]: 5 of 6
T/C (dose: 200.0 mg/kg/injection, schedule: Q01DX009 (ip), vehicle: saline): 125 % of control (2×)

Cc1ccc(NCCNCCO)c2c(=O)c3ccccc3sc12
T/C (dose: 30.0 mg/kg/injection, schedule: Q01DX009 (ip), vehicle: distilled water + Tween-80): 138 % of control
T/C (dose: 30.0 mg/kg/injection, schedule: Q01DX009 (ip), vehicle: water): 136 % of control
T/C (dose: 50.0 mg/kg/injection, schedule: Q01DX005 (ip), vehicle: Klucel (hydroxypropylcellulose) (HPC)): 130 % of control
survivor count (dose: 50.0 mg/kg/injection, schedule: Q01DX005 (ip), vehicle: other): 0 of 6
T/C (dose: 60.0 mg/kg/injection, schedule: Q01DX009 (ip), vehicle: distilled water + Tween-80): 148 % of control
survivor count (dose: 60.0 mg/kg/injection, schedule: Q01DX009 (ip), vehicle: water): 2 of 6
T/C [14]: 142 % of control
survivor count (dose: 100.0 mg/kg/injection, schedule: Q01DX005 (ip), vehicle: other): 0 of 6
survivor count [13]: 5 of 6
survivor count (dose: 200.0 mg/kg/injection, schedule: Q01DX005 (ip), vehicle: other): 0 of 6
survivor count (dose: 400.0 mg/kg/injection, schedule: Q01DX005 (ip), vehicle: Klucel (hydroxypropylcellulose) (HPC)): 0 of 6
survivor count (dose: 400.0 mg/kg/injection, schedule: Q01DX005 (ip), vehicle: other): 0 of 6

CC(=O)OC1CC2CCC1(C)C2(C)C (configuration not stated)
survivor count [4]: 2 of 6

Cc1ccccc1C[n+]1ccccc1Br
survivor count (dose: 50.0 mg/kg/injection, schedule: Q01DX005 (ip), vehicle: saline): 5 of 5
survivor count (dose: 100.0 mg/kg/injection, schedule: Q01DX005 (ip), vehicle: saline): 0 of 5
survivor count (dose: 200.0 mg/kg/injection, schedule: Q01DX005 (ip), vehicle: saline): 0 of 5

CCOC(=O)N1C(=O)C=CC1=O
survivor count (dose: 300.0 mg/kg/injection, schedule: Q01DX009 (ip), vehicle: saline with Tween-80): 0 of 6

CC(=O)O[C@]12C=C[C@H](O1)[C@@H]1C(=O)NC(=O)[C@@H]12
survivor count (dose: 100.0 mg/kg/injection, schedule: Q04DX002 (ip), vehicle: Klucel (hydroxypropylcellulose) (HPC)): 2 of 6
survivor count (dose: 200.0 mg/kg/injection, schedule: Q04DX002 (ip), vehicle: Klucel (hydroxypropylcellulose) (HPC)): 0 of 6
survivor count (dose: 400.0 mg/kg/injection, schedule: Q04DX002 (ip), vehicle: Klucel (hydroxypropylcellulose) (HPC)): 0 of 6

CCN(CC)c1ccc(/C=C/c2ccnc3ccccc23)cc1
survivor count (dose: 12.5 mg/kg/injection, schedule: Q01DX009 (ip), vehicle: saline with Tween-80): 5 of 6
survivor count [9]: 5 of 6
survivor count (dose: 50.0 mg/kg/injection, schedule: Q01DX009 (ip), vehicle: saline with Tween-80): 5 of 6 and 6 of 6
survivor count (dose: 80.0 mg/kg/injection, schedule: Q04DX003 (ip), vehicle: saline): 6 of 6
survivor count [3]: 5 of 6 and 6 of 6
survivor count [10]: 6 of 6 (2×)
survivor count [11]: 3 of 6 and 4 of 6

Reference: PubChem BioAssay AID330 (DTP/NCI, 2004)
